Data as given in PubChem BioAssay AID504786 (Drosophila RNAi Screening Center, 2011).
The deposit covers about 21,000 reagents; shown is a random part of those with a known target gene and a result. 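Primary screen; positive scores mean lost reporter signal, so the sign may be inverted from the usual convention.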

Assay: 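Fly genes required for HIF-dependent transcription when hypoxia is mimicked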 (primary screen)
Cells: Drosophila S2 cells with a stable HIF luciferase reporter
Reagents: long dsRNA against Drosophila genes, about 0.2 µg dsRNA per well of a 384-well plate
Time to read-out: three days of knock-down, then 20 h of DFO before reading
Treatment: desferrioxamine (DFO) at 100 µM, an iron chelator that mimics hypoxia, for 20 h
Read-out: 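HIF reporter luminescence in cells given 100 µM DFO for 20 h, using the mouse ldh-a hypoxia-response element, scored as per-plate z-scores; higher means greater loss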
Reading the numbers: z-score: higher = stronger loss of HIF reporter signal

{"gene knocked down": "CG14740 (GeneID 41468)", "amplicon": "DRSC14960", "z-score, replicate 1": -0.3, "z-score, replicate 2": -0.4}
{"gene knocked down": "CG10588 (GeneID 40316)", "amplicon": "DRSC11628", "z-score, replicate 1": -0.3, "z-score, replicate 2": 0}
{"gene knocked down": "CheB38c (GeneID 35346)", "amplicon": "DRSC02389", "z-score, replicate 1": -0.3, "z-score, replicate 2": 0.1}
{"gene knocked down": "exu (GeneID 37345)", "amplicon": "DRSC07615", "z-score, replicate 1": -0.3, "z-score, replicate 2": -0.5}
{"gene knocked down": "Egfr (GeneID 37455)", "amplicon": "DRSC03871", "z-score, replicate 1": -0.6, "z-score, replicate 2": -0.4}
{"gene knocked down": "Egfr (GeneID 37455)", "amplicon": "DRSC04613", "z-score, replicate 1": -0.3, "z-score, replicate 2": -0.5}
{"gene knocked down": "Cys (GeneID 41767)", "amplicon": "DRSC16637", "z-score, replicate 1": -0.3, "z-score, replicate 2": -0.2}
{"gene knocked down": "CG31391 (GeneID 41280)", "amplicon": "DRSC16047", "z-score, replicate 1": -0.1, "z-score, replicate 2": -1}
{"gene knocked down": "CG6654 (GeneID 41831)", "amplicon": "DRSC16084", "z-score, replicate 1": -0.2, "z-score, replicate 2": 0}
{"gene knocked down": "CG4770 (GeneID 42375)", "amplicon": "DRSC15639", "z-score, replicate 1": -0.9, "z-score, replicate 2": -0.4}
{"gene knocked down": "CG14260 (GeneID 43287)", "amplicon": "DRSC14755", "z-score, replicate 1": 0, "z-score, replicate 2": -0.8}
{"gene knocked down": "sug (GeneID 36424)", "amplicon": "DRSC06855", "z-score, replicate 1": -0.2, "z-score, replicate 2": 0}
{"gene knocked down": "jub (GeneID 32351)", "amplicon": "DRSC19367", "z-score, replicate 1": 0.7, "z-score, replicate 2": 0.6}
{"gene knocked down": "tay (GeneID 32547)", "amplicon": "DRSC20142", "z-score, replicate 1": -0.1, "z-score, replicate 2": 0.1}
{"gene knocked down": "CG17287 (GeneID 36939)", "amplicon": "DRSC06659", "z-score, replicate 1": -0.2, "z-score, replicate 2": -0.3}
{"gene knocked down": "bwa (GeneID 250736)", "amplicon": "DRSC01749", "z-score, replicate 1": -0.2, "z-score, replicate 2": -0.1}
{"gene knocked down": "bwa (GeneID 250736)", "amplicon": "DRSC02310", "z-score, replicate 1": -0.2, "z-score, replicate 2": -0.1}
{"gene knocked down": "ClpX (GeneID 42369)", "amplicon": "DRSC15592", "z-score, replicate 1": -0.1, "z-score, replicate 2": 0}
{"gene knocked down": "CG10343 (GeneID 35127)", "amplicon": "DRSC02041", "z-score, replicate 1": -0.2, "z-score, replicate 2": 0}
{"gene knocked down": "Loxl2 (GeneID 37485)", "amplicon": "DRSC04469", "z-score, replicate 1": -0.2, "z-score, replicate 2": 0.4}
{"gene knocked down": "APP-BP1 (GeneID 39244)", "amplicon": "DRSC10920", "z-score, replicate 1": -0.5, "z-score, replicate 2": -0.9}
{"gene knocked down": "CG6790 (GeneID 41388)", "amplicon": "DRSC16117", "z-score, replicate 1": -0.3, "z-score, replicate 2": -0.3}
{"gene knocked down": "CG9536 (GeneID 33904)", "amplicon": "DRSC03254", "z-score, replicate 1": -0.4, "z-score, replicate 2": -0.4}
{"gene knocked down": "Listericin (GeneID 36183)", "amplicon": "DRSC07334", "z-score, replicate 1": -0.3, "z-score, replicate 2": -0.4}
{"gene knocked down": "Prp3 (GeneID 40172)", "amplicon": "DRSC10912", "z-score, replicate 1": 3.2, "z-score, replicate 2": 5.1}
{"gene knocked down": "mus101 (GeneID 48309)", "amplicon": "DRSC19388", "z-score, replicate 1": -0.1, "z-score, replicate 2": 0.5}
{"gene knocked down": "a6 (GeneID 31127)", "amplicon": "DRSC18733", "z-score, replicate 1": -0.2, "z-score, replicate 2": -0.1}
